# Source: PubChem BioAssay AID504467 (National Center for Advancing Translational Sciences (NCATS), 2011)
# About 7,700 (2.3%) of roughly 330,000 compounds were called active. This list was built around the results that the source calls inconclusive (neither active nor inactive); the mix of calls is not that of the screen. Calls follow the shape of the dose curve; as a rule, active = well fitted inhibition curve with a large enough effect; inconclusive = small, poorly fitted or top-dose-only effect, or effect the other way; inactive = flat fitted curve, though single readings scatter. Where the call is inconclusive, the potency comes from a doubtful curve fit.
# Assay: qHTS screen for small molecules that inhibit ELG1-dependent DNA repair in human embryonic kidney (HEK293T) cells expressing luciferase-tagged ELG1; also: nearly all actives have a fitted effect of over 55% in size
# Settings: HEK293T ELG1-luciferase reporter, luminescence, 16 h, DNA damage induced by 5-fluorouridine; series mostly up to 46.1 µM
# Summary of the method: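 Quantitative HTS, concentration-response format. 2,000 cells/well co-treated with 5-fluorouridine and compound, 16 hr in 5% CO2 at 37 °C; ONE-Glo luminescence read after 30 min.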
# Potency is read from the fitted curve at half-maximal effect.
row,SMILES,Potency
1,Cc1cc(=O)[nH]c(N/N=C/c2cc(C)n(CC(F)(F)F)c2C)n1,"inconclusive: 1.46 µM [activator, partial curve]"
2,CC(=O)Nc1nnc(-c2ccccn2)o1,"inconclusive: 18.4 µM [activator, partial curve, poor fit]"
3,O=C(Nc1cccc(O)c1)C1CC(c2ccc(Cl)cc2)=NO1 (stereo unspecified),inactive
4,Nc1ncncc1-c1ccc2ccccc2c1,inactive
5,ClCc1csc(N/N=C/c2cccs2)n1,inactive
6,Cc1[nH]c2ccc(-c3n[nH]c(=S)n3-c3ccccc3)cc2c1C,inactive
7,CC1CCN(c2ccccc2NC(=S)NC(=O)C(C)(C)C)CC1,inactive
8,Cc1ccc(N2CCN(S(=O)(=O)c3ccc(Cl)s3)CC2C)cc1 (stereo unspecified),inactive
9,CC1CCN(CCCCOc2ccc(C(C)(C)C)cc2)CC1,"inconclusive: 29.1 µM [inhibitor, single point]"
10,CC(C)c1ccc(NC2=NCC(=O)N2Cc2cccs2)cc1,"inconclusive: 29.1 µM [activator, single point]"
11,COc1ccc(/C=C(/CC(=O)Nc2ccc(C)cc2)c2nc3ccccc3s2)cc1,"inconclusive: 20.6 µM [activator, single point]"
12,COc1ccc(NC(=O)Cn2c(=O)n(Cc3ccco3)c(=O)c3ccccc32)cc1,"inconclusive: 23.1 µM [inhibitor, partial curve, poor fit]"
13,CCN(CCCNC(=O)CN1C(=O)COc2ccccc21)c1cccc(C)c1,"inconclusive: 18.4 µM [inhibitor, partial curve, poor fit]"
14,CCN(CC)S(=O)(=O)c1cc(NC(=O)COC(=O)c2c(C)noc2C)ccc1C,"inconclusive: 7.3 µM [inhibitor, partial curve]"
15,C#CCNC(=O)C1=C[C@H](C2CCCCC2)[C@@H](CCCO)[C@H](OCC)O1,inactive
16,Cc1ccc2nc(-c3ccc(NS(=O)(=O)c4ccc(F)c(F)c4)cc3)sc2c1,"inconclusive: 1.84 µM [activator, full curve]"
17,CCN(CC)S(=O)(=O)c1ccc2c(c1)C(=NO)c1cc(S(=O)(=O)N(CC)CC)ccc1-2,active: 7.31 µM
18,Cc1cc(C)cc(-n2c(N)c(C(=O)Nc3c(C)n(C)n(-c4ccccc4)c3=O)c3nc4ccccc4nc32)c1,"inconclusive: 5.17 µM [inhibitor, partial curve, poor fit]"
19,N/C(=N\OC(=O)c1ccc(F)cc1)c1cccc([N+](=O)[O-])c1,"inconclusive: 20.6 µM [activator, partial curve]"
20,Cc1ccc(NC(=O)c2ccc(OC(=O)CCN3C(=O)c4ccccc4C3=O)cc2)cc1,"inconclusive: 5.17 µM [activator, partial curve]"
21,CC1CCN(CCOCCSc2ccc(Cl)cc2)CC1,inactive
22,CN(C)c1nc(=Nc2cccc(Cl)c2)ss1,"inconclusive: 4.61 µM [activator, full curve]"
23,CCNC(=O)CSc1nnc(-c2cccs2)o1,inactive

row,SMILES,Potency
1,CCCCOc1ccc(S(=O)(=O)NNC(=O)c2cc3ccccc3o2)cc1,inactive
2,O=C1CCCCC1Sc1nnc(Nc2ccccc2)s1 (stereo unspecified),"inconclusive: 8.2 µM [activator, partial curve]"
3,Cc1ccc(C(=O)Nc2ccn(C)n2)cc1,"inconclusive: 16.4 µM [activator, partial curve]"
4,CCCCCCSc1cc(-c2nc3cnccn3c2NCc2ccccc2)ccc1OC,"inconclusive: 28.2 µM [inhibitor, single point]"
5,O=C(NCc1ccncc1)C(=O)NCC(c1ccco1)N1CCN(c2ccccc2F)CC1 (stereo unspecified),"inconclusive: 20.6 µM [inhibitor, partial curve, poor fit]"
6,CCOC(=O)Cn1c(=NC(=O)CC)sc2c(C)cc(C)cc21,"inconclusive: 18.3 µM [inhibitor, single point]"
7,Cc1[nH]c2c(ccc3cccnc32)c1C,active: 14.6 µM
8,CCCCc1nnc(NC(=O)COC)s1,"inconclusive: 16.4 µM [activator, partial curve, poor fit]"
9,O=C(CN1C(=O)C2C3C=CC(C3)C2C1=O)OCC(=O)c1ccc([N+](=O)[O-])cc1 (stereo unspecified),"inconclusive: 4.11 µM [inhibitor, partial curve, poor fit]"
10,Cn1c(/C(C#N)=C(\O)c2ccc(Br)s2)nc2ccccc21,"inconclusive: 5.17 µM [activator, full curve]"
11,Cc1cccc(N2CCN(C3=NC(=O)/C(=C\c4cn[nH]c4-c4ccccc4)S3)CC2)c1,active: 2.31 µM
12,O=C1NCC(c2ccccc2)C1C(=O)N/N=C\c1ccc(-c2ccc(Cl)c(Cl)c2)o1 (stereo unspecified),"inconclusive: 25.9 µM [inhibitor, single point]"
13,CCOC(=O)C(=CNc1cc(C)nn1C(C)(C)C)C(=O)OCC,"inconclusive: 20.6 µM [inhibitor, partial curve, poor fit]"
14,COc1ccc(C(=O)O/N=C(\N)Cc2ccc([N+](=O)[O-])cc2)c(OC)c1,"inconclusive: 29.1 µM [inhibitor, single point]"
15,CCCCNC(=O)c1ccc(NS(=O)(=O)c2ccc3[nH]c(=O)[nH]c3c2)cc1,inactive
16,COc1ccc(C(=O)N(CN2CCCC2=O)c2nccs2)cc1OC,"inconclusive: 23.1 µM [activator, single point]"
17,COC(=O)[C@H](Cc1ccccc1)NC(=O)NCc1ccc(C)cc1,inactive
18,Cc1ccc(CSc2ccc(-c3ccc4c(c3)OCO4)nn2)cc1,"inconclusive: 16.4 µM [activator, single point]"
19,Cc1ccc(NC(=O)NC2CCCc3ccccc32)cc1 (stereo unspecified),"inconclusive: 18.3 µM [activator, single point]"
20,O=C(Nc1cccc(Cl)c1)c1cccnn1,"inconclusive: 18.3 µM [activator, single point]"
21,COC(=O)c1sccc1NC(=O)COc1ccccc1Cl,"inconclusive: 18.4 µM [activator, partial curve]"
22,CN1C=CC=C/C1=C1/N=C(c2ccccc2)OC1=O,inactive
23,COc1ccccc1N1CCN(C(=O)Nc2ccc([N+](=O)[O-])cc2)CC1,active: 14.6 µM

# In the list so far, 8 have a Cl atom:
row,SMILES,Potency
3,O=C(Nc1cccc(O)c1)C1CC(c2ccc(Cl)cc2)=NO1 (stereo unspecified),inactive
5,ClCc1csc(N/N=C/c2cccs2)n1,inactive
8,Cc1ccc(N2CCN(S(=O)(=O)c3ccc(Cl)s3)CC2C)cc1 (stereo unspecified),inactive
21,CC1CCN(CCOCCSc2ccc(Cl)cc2)CC1,inactive
22,CN(C)c1nc(=Nc2cccc(Cl)c2)ss1,"inconclusive: 4.61 µM [activator, full curve]"
12,O=C1NCC(c2ccccc2)C1C(=O)N/N=C\c1ccc(-c2ccc(Cl)c(Cl)c2)o1 (stereo unspecified),"inconclusive: 25.9 µM [inhibitor, single point]"
20,O=C(Nc1cccc(Cl)c1)c1cccnn1,"inconclusive: 18.3 µM [activator, single point]"
21,COC(=O)c1sccc1NC(=O)COc1ccccc1Cl,"inconclusive: 18.4 µM [activator, partial curve]"
